Results are given in words; binding and its absence hold for the method and conditions named. Binding seen in cells or lysates may run through a third protein. These calls come from enrichment with a bait or labelling near it, and not all partners need be listed.
B1: TRIM56 (protein, UniProt Q9BRZ2 1-755)
chain: MVSHGSSPSLLEALSSDFLACKICLEQLRAPKTLPCLHTYCQDCLAQLADGGRVRCPECRETVPVPPEGVASFKTNFFVNGLLDLVKARACGDLRAGKPACALCPLVGGTSTGGPATARCLDCADDLCQACADGHRCTRQTHTHRVVDLVGYRAGWYDEEARERQAAQCPQHPGEALRFLCQPCSQLLCRECRLDPHLDHPCLPLAEAVRARRPGLEGLLAGVDNNLVELEAARRVEKEALARLREQAARVGTQVEEAAEGVLRALLAQKQEVLGQLRAHVEAAEEAARERLAELEGREQVARAAAAFARRVLSLGREAEILSLEGAIAQRLRQLQGCPWAPGPAPCLLPQLELHPGLLDKNCHLLRLSFEEQQPQKDGGKDGAGTQGGEESQSRREDEPKTERQGGVQPQAGDGAQTPKEEKAQTTREEGAQTLEEDRAQTPHEDGGPQPHRGGRPNKKKKFKGRLKSISREPSPALGPNLDGSGLLPRPIFYCSFPTRMPGDKRSPRITGLCPFGPREILVADEQNRALKRFSLNGDYKGTVPVPEGCSPCSVAALQSAVAFSASARLYLINPNGEVQWRRALSLSQASHAVAALPSGDRVAVSVAGHVEVYNMEGSLATRFIPGGKASRGLRALVFLTTSPQGHFVGSDWQQNSVVICDGLGQVVGEYKGPGLHGCQPGSVSVDKKGYIFLTLREVNKVVILDPKGSLLGDFLTAYHGLEKPRVTTMVDGRYLVVSLSNGTIHIFRVRSPDS
B2: IFIT1, endogenous (protein, UniProt P09914 1-478)
chain: MSTNGDDHQVKDSLEQLRCHFTWELSIDDDEMPDLENRVLDQIEFLDTKYSVGIHNLLAYVKHLKGQNEEALKSLKEAENLMQEEHDNQANVRSLVTWGNFAWMYYHMGRLAEAQTYLDKVENICKKLSNPFRYRMECPEIDCEEGWALLKCGGKNYERAKACFEKVLEVDPENPESSAGYAISAYRLDGFKLATKNHKPFSLLPLRQAVRLNPDNGYIKVLLALKLQDEGQEAEGEKYIEEALANMSSQTYVFRYAAKFYRRKGSVDKALELLKKALQETPTSVLLHHQIGLCYKAQMIQIKEATKGQPRGQNREKLDKMIRSAIFHFESAVEKKPTFEVAHLDLARMYIEAGNHRKAEENFQKLLCMKPVVEETMQDIHFHYGRFQEFQKKSDVNAIIHYLKAIKIEQASLTRDKSINSLKKLVLRKLRRKALDLESLSLLGFVYKLEGNMNEALEYYERALRLAADFENSVRQGP
B3: IFIT2 (protein, UniProt P09913 1-472)
chain: MSENNKNSLESSLRQLKCHFTWNLMEGENSLDDFEDKVFYRTEFQNREFKATMCNLLAYLKHLKGQNEAALECLRKAEELIQQEHADQAEIRSLVTWGNYAWVYYHMGRLSDVQIYVDKVKHVCEKFSSPYRIESPELDCEEGWTRLKCGGNQNERAKVCFEKALEKKPKNPEFTSGLAIASYRLDNWPPSQNAIDPLRQAIRLNPDNQYLKVLLALKLHKMREEGEEEGEGEKLVEEALEKAPGVTDVLRSAAKFYRRKDEPDKAIELLKKALEYIPNNAYLHCQIGCCYRAKVFQVMNLRENGMYGKRKLLELIGHAVAHLKKADEANDNLFRVCSILASLHALADQYEDAEYYFQKEFSKELTPVAKQLLHLRYGNFQLYQMKCEDKAIHHFIEGVKINQKSREKEKMKDKLQKIAKMRLSKNGADSEALHVLAFLQELNEKMQQADEDSERGLESGSLIPSASSWNGE
B4: IFIT3 (protein, UniProt O14879 1-490)
chain: MSEVTKNSLEKILPQLKCHFTWNLFKEDSVSRDLEDRVCNQIEFLNTEFKATMYNLLAYIKHLDGNNEAALECLRQAEELIQQEHADQAEIRSLVTWGNYAWVYYHLGRLSDAQIYVDKVKQTCKKFSNPYSIEYSELDCEEGWTQLKCGRNERAKVCFEKALEEKPNNPEFSSGLAIAMYHLDNHPEKQFSTDVLKQAIELSPDNQYVKVLLGLKLQKMNKEAEGEQFVEEALEKSPCQTDVLRSAAKFYRRKGDLDKAIELFQRVLESTPNNGYLYHQIGCCYKAKVRQMQNTGESEASGNKEMIEALKQYAMDYSNKALEKGLNPLNAYSDLAEFLETECYQTPFNKEVPDAEKQQSHQRYCNLQKYNGKSEDTAVQHGLEGLSISKKSTDKEEIKDQPQNVSENLLPQNAPNYWYLQGLIHKQNGDLLQAAKCYEKELGRLLRDAPSGIGSIFLSASELEDGSEEMGQGAVSSSPRELLSNSEQLN
B5: 2'-5'-oligoadenylate synthetase-like (OASL), endogenous (protein, UniProt Q15646 1-514)
chain: MALMQELYSTPASRLDSFVAQWLQPHREWKEEVLDAVRTVEEFLRQEHFQGKRGLDQDVRVLKVVKVGSFGNGTVLRSTREVELVAFLSCFHSFQEAAKHHKDVLRLIWKTMWQSQDLLDLGLEDLRMEQRVPDALVFTIQTRGTAEPITVTIVPAYRALGPSLPNSQPPPEVYVSLIKACGGPGNFCPSFSELQRNFVKHRPTKLKSLLRLVKHWYQQYVKARSPRANLPPLYALELLTIYAWEMGTEEDENFMLDEGFTTVMDLLLEYEVICIYWTKYYTLHNAIIEDCVRKQLKKERPIILDPADPTLNVAEGYRWDIVAQRASQCLKQDCCYDNRENPISSWNVKRARDIHLTVEQRGYPDFNLIVNPYEPIRKVKEKIRRTRGYSGLQRLSFQVPGSERQLLSSRCSLAKYGIFSHTHIYLLETIPSEIQVFVKNPDGGSYAYAINPNSFILGLKQQIEDQQGLPKKQQQLEFQGQVLQDWLGLGIYGIQDSDTLILSKKKGEALFPAS
B6: ADAR (protein, UniProt P55265 1-1226)
chain: MNPRQGYSLSGYYTHPFQGYEHRQLRYQQPGPGSSPSSFLLKQIEFLKGQLPEAPVIGKQTPSLPPSLPGLRPRFPVLLASSTRGRQVDIRGVPRGVHLRSQGLQRGFQHPSPRGRSLPQRGVDCLSSHFQELSIYQDQEQRILKFLEELGEGKATTAHDLSGKLGTPKKEINRVLYSLAKKGKLQKEAGTPPLWKIAVSTQAWNQHSGVVRPDGHSQGAPNSDPSLEPEDRNSTSVSEDLLEPFIAVSAQAWNQHSGVVRPDSHSQGSPNSDPGLEPEDSNSTSALEDPLEFLDMAEIKEKICDYLFNVSDSSALNLAKNIGLTKARDINAVLIDMERQGDVYRQGTTPPIWHLTDKKRERMQIKRNTNSVPETAPAAIPETKRNAEFLTCNIPTSNASNNMVTTEKVENGQEPVIKLENRQEARPEPARLKPPVHYNGPSKAGYVDFENGQWATDDIPDDLNSIRAAPGEFRAIMEMPSFYSHGLPRCSPYKKLTECQLKNPISGLLEYAQFASQTCEFNMIEQSGPPHEPRFKFQVVINGREFPPAEAGSKKVAKQDAAMKAMTILLEEAKAKDSGKSEESSHYSTEKESEKTAESQTPTPSATSFFSGKSPVTTLLECMHKLGNSCEFRLLSKEGPAHEPKFQYCVAVGAQTFPSVSAPSKKVAKQMAAEEAMKALHGEATNSMASDNQPEGMISESLDNLESMMPNKVRKIGELVRYLNTNPVGGLLEYARSHGFAAEFKLVDQSGPPHEPKFVYQAKVGGRWFPAVCAHSKKQGKQEAADAALRVLIGENEKAERMGFTEVTPVTGASLRRTMLLLSRSPEAQPKTLPLTGSTFHDQIAMLSHRCFNTLTNSFQPSLLGRKILAAIIMKKDSEDMGVVVSLGTGNRCVKGDSLSLKGETVNDCHAEIISRRGFIRFLYSELMKYNSQTAKDSIFEPAKGGEKLQIKKTVSFHLYISTAPCGDGALFDKSCSDRAMESTESRHYPVFENPKQGKLRTKVENGEGTIPVESSDIVPTWDGIRLGERLRTMSCSDKILRWNVLGLQGALLTHFLQPIYLKSVTLGYLFSQGHLTRAICCRVTRDGSAFEDGLRHPFIVNHPKVGRVSIYDSKRQSGKTKETSVNWCLADGYDLEILDGTRGTVDGPRNELSRVSKKNIFLLFKKLCSFRYRRDLLRLSYGEAKKAARDYETAKNYFKKGLKDMGYGNWISKPQEEKNFYLCPV
B7: HECT and RLD domain containing E3 ubiquitin-protein ligase 5 (HERC5), endogenous (protein, UniProt Q9UII4 1-1024)
chain: MERRSRRKSRRNGRSTAGKAAATQPAKSPGAQLWLFPSAAGLHRALLRRVEVTRQLCCSPGRLAVLERGGAGVQVHQLLAGSGGARTPKCIKLGKNMKIHSVDQGAEHMLILSSDGKPFEYDNYSMKHLRFESILQEKKIIQITCGDYHSLALSKGGELFAWGQNLHGQLGVGRKFPSTTTPQIVEHLAGVPLAQISAGEAHSMALSMSGNIYSWGKNECGQLGLGHTESKDDPSLIEGLDNQKVEFVACGGSHSALLTQDGLLFTFGAGKHGQLGHNSTQNELRPCLVAELVGYRVTQIACGRWHTLAYVSDLGKVFSFGSGKDGQLGNGGTRDQLMPLPVKVSSSEELKLESHTSEKELIMIAGGNQSILLWIKKENSYVNLKRTIPTLNEGTVKRWIADVETKRWQSTKREIQEIFSSPACLTGSFLRKRRTTEMMPVYLDLNKARNIFKELTQKDWITNMITTCLKDNLLKRLPFHSPPQEALEIFFLLPECPMMHISNNWESLVVPFAKVVCKMSDQSSLVLEEYWATLQESTFSKLVQMFKTAVICQLDYWDESAEENGNVQALLEMLKKLHRVNQVKCQLPESIFQVDELLHRLNFFVEVCRRYLWKMTVDASENVQCCVIFSHFPFIFNNLSKIKLLHTDTLLKIESKKHKAYLRSAAIEEERESEFALRPTFDLTVRRNHLIEDVLNQLSQFENEDLRKELWVSFSGEIGYDLGGVKKEFFYCLFAEMIQPEYGMFMYPEGASCMWFPVKPKFEKKRYFFFGVLCGLSLFNCNVANLPFPLALFKKLLDQMPSLEDLKELSPDLGKNLQTLLDDEGDNFEEVFYIHFNVHWDRNDTNLIPNGSSITVNQTNKRDYVSKYINYIFNDSVKAVYEEFRRGFYKMCDEDIIKLFHPEELKDVIVGNTDYDWKTFEKNARYEPGYNSSHPTIVMFWKAFHKLTLEEKKKFLVFLTGTDRLQMKDLNNMKITFCCPESWNERDPIRALTCFSVLFLPKYSTMETVEEALQEAINNNRGFG

Sequences of proteins named here, by UniProt entry; tags and fusion partners are left off. Residues count along the entry.
UniProt Q9UN81: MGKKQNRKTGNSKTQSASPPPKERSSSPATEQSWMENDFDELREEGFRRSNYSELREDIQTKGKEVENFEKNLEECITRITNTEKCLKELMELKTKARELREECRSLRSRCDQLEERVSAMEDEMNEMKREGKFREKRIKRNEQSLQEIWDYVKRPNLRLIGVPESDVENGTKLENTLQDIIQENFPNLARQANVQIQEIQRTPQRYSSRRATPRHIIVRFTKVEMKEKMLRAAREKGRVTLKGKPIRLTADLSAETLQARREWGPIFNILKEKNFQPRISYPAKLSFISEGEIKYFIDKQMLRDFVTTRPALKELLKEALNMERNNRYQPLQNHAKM
UniProt Q9UH17: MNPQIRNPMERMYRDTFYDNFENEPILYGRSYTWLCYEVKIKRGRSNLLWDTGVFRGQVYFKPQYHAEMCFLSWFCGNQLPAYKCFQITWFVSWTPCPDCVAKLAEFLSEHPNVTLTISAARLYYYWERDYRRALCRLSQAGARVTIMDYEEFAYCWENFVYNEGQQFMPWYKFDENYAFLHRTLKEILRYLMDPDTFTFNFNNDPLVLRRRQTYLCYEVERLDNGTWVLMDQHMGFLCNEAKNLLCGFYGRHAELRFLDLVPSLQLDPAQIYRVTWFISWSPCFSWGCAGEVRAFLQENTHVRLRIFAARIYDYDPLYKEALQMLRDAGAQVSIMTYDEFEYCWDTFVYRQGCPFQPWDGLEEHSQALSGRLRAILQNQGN
UniProt Q8IY21: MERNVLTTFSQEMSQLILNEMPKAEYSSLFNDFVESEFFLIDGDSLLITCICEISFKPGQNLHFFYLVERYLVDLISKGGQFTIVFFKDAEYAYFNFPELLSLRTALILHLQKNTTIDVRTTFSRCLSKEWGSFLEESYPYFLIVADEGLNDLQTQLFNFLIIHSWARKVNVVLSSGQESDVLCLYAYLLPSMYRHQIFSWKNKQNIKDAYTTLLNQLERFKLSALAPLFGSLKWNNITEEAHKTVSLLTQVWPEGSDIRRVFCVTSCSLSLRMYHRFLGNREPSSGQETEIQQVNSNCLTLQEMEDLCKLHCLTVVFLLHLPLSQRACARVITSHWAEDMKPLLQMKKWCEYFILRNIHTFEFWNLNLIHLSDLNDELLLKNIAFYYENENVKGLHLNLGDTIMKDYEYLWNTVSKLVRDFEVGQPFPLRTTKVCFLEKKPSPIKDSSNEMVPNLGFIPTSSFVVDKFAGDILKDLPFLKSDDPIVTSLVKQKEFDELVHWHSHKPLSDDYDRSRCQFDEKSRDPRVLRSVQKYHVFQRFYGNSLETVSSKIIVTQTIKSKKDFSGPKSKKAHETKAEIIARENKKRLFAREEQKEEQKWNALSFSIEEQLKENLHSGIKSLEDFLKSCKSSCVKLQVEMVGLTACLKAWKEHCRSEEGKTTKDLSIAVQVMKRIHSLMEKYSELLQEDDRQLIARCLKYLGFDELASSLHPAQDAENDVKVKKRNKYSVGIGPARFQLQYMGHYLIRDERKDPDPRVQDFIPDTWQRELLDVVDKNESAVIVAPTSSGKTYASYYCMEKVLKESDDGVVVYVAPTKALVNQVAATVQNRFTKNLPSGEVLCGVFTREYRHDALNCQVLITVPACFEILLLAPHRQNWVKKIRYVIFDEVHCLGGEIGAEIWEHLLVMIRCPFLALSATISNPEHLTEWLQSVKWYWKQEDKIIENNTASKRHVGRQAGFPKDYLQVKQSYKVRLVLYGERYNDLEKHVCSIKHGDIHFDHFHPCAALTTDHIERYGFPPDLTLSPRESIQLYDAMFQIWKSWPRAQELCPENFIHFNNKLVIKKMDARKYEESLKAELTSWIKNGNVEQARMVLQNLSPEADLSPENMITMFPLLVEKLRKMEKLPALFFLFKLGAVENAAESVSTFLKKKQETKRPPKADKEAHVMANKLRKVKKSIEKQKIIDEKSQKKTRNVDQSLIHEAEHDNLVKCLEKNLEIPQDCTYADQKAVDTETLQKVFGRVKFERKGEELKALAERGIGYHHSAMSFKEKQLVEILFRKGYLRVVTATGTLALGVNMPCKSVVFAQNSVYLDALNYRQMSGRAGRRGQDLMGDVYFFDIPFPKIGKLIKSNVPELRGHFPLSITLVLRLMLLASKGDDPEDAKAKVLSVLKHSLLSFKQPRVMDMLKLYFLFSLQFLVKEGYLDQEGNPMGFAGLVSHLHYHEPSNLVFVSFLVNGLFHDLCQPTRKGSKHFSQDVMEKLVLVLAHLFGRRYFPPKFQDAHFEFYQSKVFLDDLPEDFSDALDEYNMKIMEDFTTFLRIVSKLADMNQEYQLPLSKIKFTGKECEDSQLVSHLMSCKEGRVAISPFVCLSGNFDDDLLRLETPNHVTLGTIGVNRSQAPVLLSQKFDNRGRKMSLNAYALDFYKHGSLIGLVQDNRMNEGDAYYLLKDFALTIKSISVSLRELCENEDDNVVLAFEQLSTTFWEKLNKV
UniProt Q96C10: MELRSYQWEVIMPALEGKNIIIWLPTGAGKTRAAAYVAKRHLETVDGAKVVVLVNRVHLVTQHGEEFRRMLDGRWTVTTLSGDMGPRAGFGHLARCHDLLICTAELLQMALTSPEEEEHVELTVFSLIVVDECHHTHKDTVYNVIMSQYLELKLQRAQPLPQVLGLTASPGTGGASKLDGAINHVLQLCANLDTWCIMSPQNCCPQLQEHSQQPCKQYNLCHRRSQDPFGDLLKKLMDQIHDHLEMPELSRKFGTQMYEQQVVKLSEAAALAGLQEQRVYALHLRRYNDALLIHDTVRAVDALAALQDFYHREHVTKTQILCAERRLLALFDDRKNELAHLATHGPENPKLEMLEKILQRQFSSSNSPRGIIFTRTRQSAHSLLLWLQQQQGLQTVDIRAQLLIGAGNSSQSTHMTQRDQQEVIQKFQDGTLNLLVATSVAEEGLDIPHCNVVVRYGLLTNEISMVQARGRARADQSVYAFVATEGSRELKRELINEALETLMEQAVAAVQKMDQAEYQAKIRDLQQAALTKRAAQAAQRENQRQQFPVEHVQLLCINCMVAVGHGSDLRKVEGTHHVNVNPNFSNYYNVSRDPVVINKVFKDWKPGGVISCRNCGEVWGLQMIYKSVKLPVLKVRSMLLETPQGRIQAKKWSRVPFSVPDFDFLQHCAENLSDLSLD
UniProt P19525: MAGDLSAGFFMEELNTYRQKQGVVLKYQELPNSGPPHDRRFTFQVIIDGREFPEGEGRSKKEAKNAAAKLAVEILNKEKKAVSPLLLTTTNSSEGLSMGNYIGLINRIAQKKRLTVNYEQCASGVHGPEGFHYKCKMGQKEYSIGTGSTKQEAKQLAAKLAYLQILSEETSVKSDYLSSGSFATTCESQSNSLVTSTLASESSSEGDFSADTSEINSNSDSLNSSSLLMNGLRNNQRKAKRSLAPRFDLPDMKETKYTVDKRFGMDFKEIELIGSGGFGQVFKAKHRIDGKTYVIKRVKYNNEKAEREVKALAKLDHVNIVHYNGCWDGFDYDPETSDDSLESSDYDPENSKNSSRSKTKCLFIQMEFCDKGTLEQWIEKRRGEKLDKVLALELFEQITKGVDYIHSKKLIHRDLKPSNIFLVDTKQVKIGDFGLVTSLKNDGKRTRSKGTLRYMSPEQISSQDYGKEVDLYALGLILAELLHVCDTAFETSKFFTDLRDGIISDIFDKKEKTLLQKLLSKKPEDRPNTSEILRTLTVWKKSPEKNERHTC
UniProt Q16666: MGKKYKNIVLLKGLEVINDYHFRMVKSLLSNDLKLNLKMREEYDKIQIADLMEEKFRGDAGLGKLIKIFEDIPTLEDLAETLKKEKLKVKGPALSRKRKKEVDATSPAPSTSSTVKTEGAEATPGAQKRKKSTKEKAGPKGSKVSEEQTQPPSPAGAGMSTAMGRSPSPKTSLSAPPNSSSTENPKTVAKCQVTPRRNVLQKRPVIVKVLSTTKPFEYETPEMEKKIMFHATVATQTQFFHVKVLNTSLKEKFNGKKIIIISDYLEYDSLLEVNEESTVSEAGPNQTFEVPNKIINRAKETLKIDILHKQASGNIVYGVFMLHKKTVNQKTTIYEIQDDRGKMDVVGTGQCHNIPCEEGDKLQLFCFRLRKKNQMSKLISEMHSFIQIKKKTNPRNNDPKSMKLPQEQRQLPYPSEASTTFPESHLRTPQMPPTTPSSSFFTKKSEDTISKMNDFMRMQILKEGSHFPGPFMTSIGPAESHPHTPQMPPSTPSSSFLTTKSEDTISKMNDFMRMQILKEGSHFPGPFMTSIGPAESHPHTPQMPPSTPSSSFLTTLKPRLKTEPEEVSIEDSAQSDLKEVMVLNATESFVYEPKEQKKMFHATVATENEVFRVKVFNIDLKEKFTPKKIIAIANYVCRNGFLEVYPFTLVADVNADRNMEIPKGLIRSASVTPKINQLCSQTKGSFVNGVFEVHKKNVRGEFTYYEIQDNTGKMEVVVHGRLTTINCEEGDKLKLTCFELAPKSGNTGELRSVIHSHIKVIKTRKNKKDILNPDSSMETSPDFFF
UniProt Q08380, residues 19-585: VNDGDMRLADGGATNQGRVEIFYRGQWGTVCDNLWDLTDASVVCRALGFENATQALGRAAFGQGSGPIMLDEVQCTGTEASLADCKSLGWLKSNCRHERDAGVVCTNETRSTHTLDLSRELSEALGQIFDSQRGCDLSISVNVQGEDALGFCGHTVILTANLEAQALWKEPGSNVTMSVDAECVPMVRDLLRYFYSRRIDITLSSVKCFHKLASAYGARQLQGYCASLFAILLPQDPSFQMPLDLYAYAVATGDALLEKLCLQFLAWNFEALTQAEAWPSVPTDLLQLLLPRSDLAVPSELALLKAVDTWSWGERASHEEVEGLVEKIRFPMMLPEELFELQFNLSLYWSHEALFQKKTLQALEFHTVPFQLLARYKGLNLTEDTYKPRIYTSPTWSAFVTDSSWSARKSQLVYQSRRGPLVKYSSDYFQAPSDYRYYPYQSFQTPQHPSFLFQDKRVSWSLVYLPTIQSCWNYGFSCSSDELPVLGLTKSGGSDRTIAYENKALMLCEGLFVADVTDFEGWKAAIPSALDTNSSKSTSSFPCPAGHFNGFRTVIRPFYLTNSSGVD
UniProt Q14258: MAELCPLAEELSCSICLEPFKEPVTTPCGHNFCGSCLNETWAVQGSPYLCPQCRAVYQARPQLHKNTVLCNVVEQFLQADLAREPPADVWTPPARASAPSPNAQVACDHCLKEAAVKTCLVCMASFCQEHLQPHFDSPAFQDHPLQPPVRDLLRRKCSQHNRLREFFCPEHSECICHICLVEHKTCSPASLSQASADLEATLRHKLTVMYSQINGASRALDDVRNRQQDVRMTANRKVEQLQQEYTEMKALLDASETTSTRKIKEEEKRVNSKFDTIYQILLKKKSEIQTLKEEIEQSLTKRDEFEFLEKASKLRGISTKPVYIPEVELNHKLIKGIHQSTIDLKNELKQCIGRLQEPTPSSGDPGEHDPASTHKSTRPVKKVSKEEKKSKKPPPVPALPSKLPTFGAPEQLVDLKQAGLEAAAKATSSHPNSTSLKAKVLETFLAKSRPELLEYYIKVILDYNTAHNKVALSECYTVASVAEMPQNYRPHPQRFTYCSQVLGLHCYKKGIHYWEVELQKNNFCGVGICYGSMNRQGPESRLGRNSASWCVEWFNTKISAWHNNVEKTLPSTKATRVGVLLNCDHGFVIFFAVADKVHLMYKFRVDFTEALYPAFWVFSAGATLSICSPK
UniProt Q7Z2W4: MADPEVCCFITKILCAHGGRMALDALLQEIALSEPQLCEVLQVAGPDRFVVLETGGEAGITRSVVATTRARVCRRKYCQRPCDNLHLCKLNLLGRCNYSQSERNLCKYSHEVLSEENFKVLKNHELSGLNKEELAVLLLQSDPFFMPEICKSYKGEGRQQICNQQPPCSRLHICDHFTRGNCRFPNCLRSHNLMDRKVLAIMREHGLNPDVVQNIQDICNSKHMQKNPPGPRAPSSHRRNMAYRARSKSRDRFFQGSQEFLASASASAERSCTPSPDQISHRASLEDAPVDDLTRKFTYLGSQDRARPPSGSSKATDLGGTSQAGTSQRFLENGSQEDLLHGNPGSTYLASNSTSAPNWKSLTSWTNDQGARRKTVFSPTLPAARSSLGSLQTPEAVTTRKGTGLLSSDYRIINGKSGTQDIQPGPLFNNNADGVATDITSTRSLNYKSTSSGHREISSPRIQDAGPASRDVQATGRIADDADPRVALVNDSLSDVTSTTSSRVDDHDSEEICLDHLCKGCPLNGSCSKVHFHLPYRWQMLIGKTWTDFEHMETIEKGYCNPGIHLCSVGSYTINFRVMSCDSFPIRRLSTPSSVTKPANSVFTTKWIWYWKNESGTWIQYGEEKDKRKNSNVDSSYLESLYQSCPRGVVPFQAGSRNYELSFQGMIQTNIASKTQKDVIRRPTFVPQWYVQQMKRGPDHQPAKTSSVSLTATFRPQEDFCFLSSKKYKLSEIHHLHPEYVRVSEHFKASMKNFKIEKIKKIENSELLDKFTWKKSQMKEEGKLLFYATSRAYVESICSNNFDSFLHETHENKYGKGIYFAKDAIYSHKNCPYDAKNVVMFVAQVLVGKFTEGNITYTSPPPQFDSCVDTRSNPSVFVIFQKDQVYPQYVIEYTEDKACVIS

These molecules were tested against WT ORF1p-FLAG (L1.3 ORF1-encoded protein with a carboxyl-terminal FLAG epitope tag, expressed from pJM101/L1.3FLAG) (human) (UniProt Q9UN81) (assay: affinity purification with mass spectrometry; HeLa-JVM cells transfected with L1 constructs; anti-FLAG M2 on Dynabeads Protein G, Lysis150 buffer (20 mM Tris-HCl pH 7.5, 2.5 mM MgCl2, 150 mM KCl, 0.5% IGEPAL CA-630, 1 mM DTT), 4 °C, elution with 3xFLAG peptide; LC-MS/MS with label-free quantification, WT ORF1p-FLAG vs. M8/RBM-FLAG).

binding, binds:
ADARB1 (from UniProt P78563 1-741)
APOBEC3B (from UniProt Q9UH17 1-382)
DDX60 (from UniProt Q8IY21 1-1712)
DDX60L, endogenous (from UniProt Q5H9U9 1-1706)
DHX58 (from UniProt Q96C10 1-678)
EIF2AK2 (from UniProt P19525 1-551)
IFI16 (from UniProt Q16666 1-785)
LGALS3BP (from UniProt Q08380 19-585)
PARP12 (from UniProt Q9H0J9 1-701)
TRIM25 (from UniProt Q14258 1-630)
ZC3HAV1 (zinc-finger antiviral protein, ZAP) (from UniProt Q7Z2W4 1-902)
B1
B2
B3
B4
B5
B6
B7
